Results are given in words; binding and its absence hold for the method and conditions named. Some entries that bind do so weakly or less than the wild type.
Molecular target: 16K hPRL (16 kDa N-terminal fragment of human prolactin) (human) (UniProt P01236)
Test: Superose 12 size exclusion chromatography in native conditions (major peak at app. M.M. 46700 against calculated M.M. 15900) and SDS-PAGE with or without beta-mercaptoethanol; non-covalent self-association

B1: 16K hPRL (16 kDa N-terminal fragment of human prolactin) (protein)
chain: LPICPGGAARCQVTLRDLFDRAVVLSHYIHNLSSEMFSEFDKRYTHGRGFITKAINSCHTSSLATPEDKEQAQQMNQKDFLSLIVSILRSWNEPLYHLVTEVRGMQEAPEAILSKAVEIEEQTKRLLEGMELIVSQVHP
  binding: binds

From patent US20080039384A1
